Measurements reported in the supplement of paper PMC8256030.
Several values for one entry are separate records, joined by “and”; a condition that tells them apart may be missing. Equal values may be shown once. Where a name gives a salt, the structure may show the parent alone. The list shows a part of the results. Single values are uncertain here, since repeats match poorly.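 HEK293T cells were given each compound shortly before transfection with a reporter in which red mCherry is followed by the SARS-CoV-2 frameshift element and then GFP in the −1 frame, so GFP appears only after frameshifting.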

What was measured:
[1] = system: SARS-CoV-2 -1 PRF reporter mCherry-FSE-GFP(-1); assay: mCherry (red) intensity as percent of control; higher = higher upstream reporter expression; settings: 10 µM; 24 h; HEK293T
[2] = system: SARS-CoV-2 -1 PRF reporter mCherry-FSE-GFP(-1); assay: percent effect, decrease of GFP/mCherry ratio (-1 PRF reporter) relative to controls; higher = stronger frameshift inhibition; settings: 10 µM; 24 h; HEK293T

SMILES	mCherry [1]	percent effect [2]
COc1ccc(CN(CCN(C)C)c2ccccn2)cc1 [mepyramine]	88.5% and 86.9%	-3.56% and -1.7%
O=[N+]([O-])c1cncn1CCN1CCOCC1 [nimorazole]	121%	-3.69%
NC[C@H]1O[C@H](O[C@H]2[C@H](O)[C@@H](O[C@H]3O[C@H](CO)[C@@H](O)[C@H](N)[C@H]3O)[C@H](N)C[C@@H]2N)[C@H](O)[C@@H](O)[C@@H]1O [Kantrex]	107%	-10.3%
OCCOCCN1CCN(C2=Nc3ccccc3Sc3ccccc32)CC1 [quetiapine]	97.4% and 87.7%	-2.72% and -0.147%
O=C(O)CCCCCCCC(=O)O [azelaic acid]	115%	-9.57%
CN1CCN(c2c(F)cc3c(=O)c(C(=O)O)cn4c3c2OCN4C)CC1 [marbofloxacin]	108%	-3.4%
c1ccc2c(c1)CCCC2C1=NCCN1 (stereo not drawn) [tetryzoline]	131%	-6.35%
COc1cc(O)cc(O)c1 [flamenol]	71.3%	-5.66%
CC(C)[N+]1(C)[C@@H]2CC[C@H]1CC(OC(=O)C(CO)c1ccccc1)C2 (stereo partly drawn) [Ipratropium·Br]	104%	-3.76%
C=CCc1ccccc1OCC(O)CNC(C)C (stereo not drawn)	119%	-2.91%
CN(C)CCOC(c1ccccc1)c1ccccc1.Cn1c(=O)c2[nH]c(Cl)nc2n(C)c1=O [dimenhydrinate]	107%	-5.81%
CC=CC(=O)N(CC)c1ccccc1C [Crotamiton]	65.2%	-2.79%
COc1cc(N)c(Cl)cc1C(=O)N1CCN(Cc2ccc3c(c2)OCO3)CC1 [peralopride]	95.6%	-0.985%
COC(=O)[C@@H]1[C@H]2C[C@H]3c4[nH]c5ccccc5c4CCN3C[C@@H]2CC[C@@H]1O [Yohimbine·HCl]	82.5%	-3.79%
NC[C@@H]1CC[C@@H](N)[C@@H](O[C@H]2[C@H](O)[C@@H](O[C@H]3O[C@H](CO)[C@@H](O)[C@H](N)[C@H]3O)[C@H](N)C[C@@H]2N)O1	115%	0.49%
CC(=O)SC[C@H](Cc1ccccc1)C(=O)NCC(=O)OCc1ccccc1 [dexecadotril]	65.3%	-4.49%
CCC(C(=O)O)c1ccc(N2Cc3ccccc3C2=O)cc1 (stereo not drawn) [indobufen]	77.8%	-5.59%
Nc1nc2ccc(OC(F)(F)F)cc2s1	96.9%	-0.0564%
NC(=O)NCCN1CCN(c2cccc(C(F)(F)F)c2)CC1 [fluprazine]	109%	-12.5%

One compound at a time, as listed above. Values in the order: mCherry [1] | percent effect [2]
NC[C@@H]1CC[C@@H](N)[C@@H](O[C@H]2[C@H](O)[C@@H](O[C@H]3O[C@H](CO)[C@@H](O)[C@H](N)[C@H]3O)[C@H](N)C[C@@H]2N)O1 reads 115% | 0.49%
CC(C)[N+]1(C)[C@@H]2CC[C@H]1CC(OC(=O)C(CO)c1ccccc1)C2 (stereo partly drawn) [Ipratropium·Br] reads 104% | -3.76%
